Experimental data: PMC6166740

Protein sequences, listed by entry. Tags and fused reporters are not part of them. Residues count along the entry.
UniProt P55884: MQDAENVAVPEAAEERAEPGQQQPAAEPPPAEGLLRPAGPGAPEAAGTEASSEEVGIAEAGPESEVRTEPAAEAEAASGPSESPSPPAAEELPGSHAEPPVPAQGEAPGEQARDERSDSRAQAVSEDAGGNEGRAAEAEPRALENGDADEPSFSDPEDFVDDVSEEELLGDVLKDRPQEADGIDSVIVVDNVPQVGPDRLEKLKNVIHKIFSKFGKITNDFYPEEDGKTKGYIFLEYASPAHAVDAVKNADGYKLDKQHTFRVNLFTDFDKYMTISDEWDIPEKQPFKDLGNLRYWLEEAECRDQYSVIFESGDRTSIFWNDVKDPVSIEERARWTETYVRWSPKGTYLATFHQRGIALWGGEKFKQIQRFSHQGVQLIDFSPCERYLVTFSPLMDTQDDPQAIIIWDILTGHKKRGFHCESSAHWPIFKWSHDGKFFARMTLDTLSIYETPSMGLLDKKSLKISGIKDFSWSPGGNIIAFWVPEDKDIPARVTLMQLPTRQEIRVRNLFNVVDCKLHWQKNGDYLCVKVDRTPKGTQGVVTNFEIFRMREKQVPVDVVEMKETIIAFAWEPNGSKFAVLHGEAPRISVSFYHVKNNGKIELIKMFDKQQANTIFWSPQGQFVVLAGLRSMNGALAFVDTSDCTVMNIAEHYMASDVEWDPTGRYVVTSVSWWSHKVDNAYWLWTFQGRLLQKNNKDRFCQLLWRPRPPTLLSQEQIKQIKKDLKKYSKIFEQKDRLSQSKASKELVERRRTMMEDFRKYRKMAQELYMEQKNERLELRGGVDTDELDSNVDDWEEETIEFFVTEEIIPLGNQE
UniProt Q9HC98: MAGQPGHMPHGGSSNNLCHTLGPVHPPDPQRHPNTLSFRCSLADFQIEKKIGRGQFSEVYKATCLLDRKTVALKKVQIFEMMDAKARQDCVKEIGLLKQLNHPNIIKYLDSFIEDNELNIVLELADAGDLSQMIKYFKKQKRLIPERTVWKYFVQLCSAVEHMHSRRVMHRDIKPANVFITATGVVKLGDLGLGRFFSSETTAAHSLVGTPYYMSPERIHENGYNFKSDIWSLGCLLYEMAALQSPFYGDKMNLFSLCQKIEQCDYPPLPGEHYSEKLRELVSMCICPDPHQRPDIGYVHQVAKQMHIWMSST
UniProt Q17R60, residues 21-797: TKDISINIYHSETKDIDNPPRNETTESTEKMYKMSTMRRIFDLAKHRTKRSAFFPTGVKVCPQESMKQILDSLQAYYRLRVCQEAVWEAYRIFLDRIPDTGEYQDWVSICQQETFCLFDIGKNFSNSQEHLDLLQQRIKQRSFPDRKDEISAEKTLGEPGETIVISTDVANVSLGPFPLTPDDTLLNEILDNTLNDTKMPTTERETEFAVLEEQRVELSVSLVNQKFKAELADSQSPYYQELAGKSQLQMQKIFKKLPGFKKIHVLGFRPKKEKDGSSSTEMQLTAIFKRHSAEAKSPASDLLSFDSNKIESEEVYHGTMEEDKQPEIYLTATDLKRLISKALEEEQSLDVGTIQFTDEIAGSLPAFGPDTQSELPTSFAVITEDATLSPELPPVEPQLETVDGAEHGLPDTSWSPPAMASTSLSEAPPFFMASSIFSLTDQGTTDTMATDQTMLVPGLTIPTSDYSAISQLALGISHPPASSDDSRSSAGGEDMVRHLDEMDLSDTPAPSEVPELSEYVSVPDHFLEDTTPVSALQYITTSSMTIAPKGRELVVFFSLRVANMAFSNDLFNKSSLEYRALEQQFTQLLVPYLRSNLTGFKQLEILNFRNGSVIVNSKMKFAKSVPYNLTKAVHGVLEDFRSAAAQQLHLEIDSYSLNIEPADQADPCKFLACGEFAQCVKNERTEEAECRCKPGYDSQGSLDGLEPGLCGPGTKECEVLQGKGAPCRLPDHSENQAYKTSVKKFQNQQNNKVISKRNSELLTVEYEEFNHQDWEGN

T1: FLAG-tagged NEK8 (NIMA-related kinase 8) (UniProt Q86SG6)
T1 sequence: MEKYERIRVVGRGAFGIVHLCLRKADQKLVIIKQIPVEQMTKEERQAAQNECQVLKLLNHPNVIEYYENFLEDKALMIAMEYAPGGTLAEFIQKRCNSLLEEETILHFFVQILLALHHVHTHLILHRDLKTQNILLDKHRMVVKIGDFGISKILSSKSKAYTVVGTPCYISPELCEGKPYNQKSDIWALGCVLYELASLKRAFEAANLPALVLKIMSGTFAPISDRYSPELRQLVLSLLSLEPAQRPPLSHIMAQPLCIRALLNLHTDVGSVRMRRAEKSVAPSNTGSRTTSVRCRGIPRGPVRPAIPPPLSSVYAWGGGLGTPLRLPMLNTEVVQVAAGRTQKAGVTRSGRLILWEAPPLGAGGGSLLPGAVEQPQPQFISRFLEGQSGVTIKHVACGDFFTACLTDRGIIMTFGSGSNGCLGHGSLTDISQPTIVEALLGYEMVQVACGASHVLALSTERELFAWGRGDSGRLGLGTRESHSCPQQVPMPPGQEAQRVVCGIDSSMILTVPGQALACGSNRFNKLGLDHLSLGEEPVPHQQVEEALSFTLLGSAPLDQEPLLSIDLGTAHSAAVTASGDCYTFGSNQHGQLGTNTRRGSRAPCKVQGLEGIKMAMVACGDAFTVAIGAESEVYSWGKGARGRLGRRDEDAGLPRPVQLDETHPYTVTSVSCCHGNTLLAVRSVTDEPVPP

T2: FLAG-tagged NME3 (NME/NM23 nucleoside-diphosphate kinase 3), wild type (human) (UniProt Q13232)
T2 sequence: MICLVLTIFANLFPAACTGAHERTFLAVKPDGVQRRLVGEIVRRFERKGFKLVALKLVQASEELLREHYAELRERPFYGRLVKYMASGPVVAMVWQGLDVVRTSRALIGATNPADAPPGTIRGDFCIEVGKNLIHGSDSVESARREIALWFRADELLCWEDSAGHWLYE


Key:
[1] = target: T1, FLAG-tagged NEK8 (NIMA-related kinase 8); assay: affinity purification with mass spectrometry; NEK8 as bait in an affinity purification screen; FLAG immunoprecipitation, elution with FLAG peptide, SDS gel, in-gel trypsin digestion, LTQ Orbitrap XL
[2] = target: T2, FLAG-tagged NME3 (NME/NM23 nucleoside-diphosphate kinase 3), wild type (human); assay: affinity purification with mass spectrometry; FLAG-tagged NME3 as bait; FLAG immunoprecipitation, elution with FLAG peptide, SDS gel, in-gel trypsin digestion, LTQ Orbitrap XL

Row | binding [1] | binding [2] | Molecule
1 | binds |  | EIF3B, prey found in the NEK8 affinity purification screen (from UniProt P55884 1-814)
2 |  | binds | NEK6, prey found in the FLAG-NME3 interaction screen (from UniProt Q9HC98 1-313) (enzyme)
3 | binds |  | NME3, prey found in the NEK8 affinity purification screen (enzyme, UniProt Q13232 1-169) MICLVLTIFANLFPAACTGAHERTFLAVKPDGVQRRLVGEIVRRFERKGFKLVALKLVQASEELLREHYAELRERPFYGRLVKYMASGPVVAMVWQGLDVVRTSRALIGATNPADAPPGTIRGDFCIEVGKNLIHGSDSVESARREIALWFRADELLCWEDSAGHWLYE

Continued, molecule first:

Row | Molecule | binding [1] | binding [2]
4 | IMPG1, prey found in the NEK8 affinity purification screen (from UniProt Q17R60 21-797) | binds | 
5 | DZIP1, prey found in the NEK8 affinity purification screen (protein, UniProt Q86YF9 1-867) MQAEAADWFSSMPFQKHVYYPLASGPEGPDVAVAAAAAGAASMACAPPSAASGPLPFFQFRPRLESVDWRRLSAIDVDKVAGAVDVLTLQENIMNITFCKLEDEKCPHCQSGVDPVLLKLIRLAQFTIEYLLHSQEFLTSQLHTLEERLRLSHCDGEQSKKLLTKQAGEIKTLKEECKRRKKMISTQQLMIEAKANYYQCHFCDKAFMNQAFLQSHIQRRHTEENSHFEYQKNAQIEKLRSEIVVLKEELQLTRSELEAAHHASAVRFSKEYEMQKTKEEDFLKLFDRWKEEEKEKLVDEMEKVKEMFMKEFKELTSKNSALEYQLSEIQKSNMQIKSNIGTLKDAHEFKEDRSPYPQDFHNVMQLLDSQESKWTARVQAIHQEHKKEKGRLLSHIEKLRTSMIDDLNASNVFYKKRIEELGQRLQEQNELIITQRQQIKDFTCNPLNSISEPKGNPLAWQAFESQPAAPAVPMNAPALHTLETKSSLPMVHEQAFSSHILEPIEELSEEEKGRENEQKLNNNKMHLRKALKSNSSLTKGLRTMVEQNLMEKLETLGINADIRGISSDQLHRVLKSVESERHKQEREIPNFHQIREFLEHQVSCKIEEKALLSSDQCSVSQMDTLSTGEVPKMIQLPSKNRQLIRQKAVSTDRTSVPKIKKNVMEDPFPRKSSTITTPPFSSEEEQEDDDLIRAYASPGPLPVPPPQNKGSFGKNTVKSDADGTEGSEIEDTDDSPKPAGVAVKTPTEKVEKMFPHRKNVNKPVGGTNVPEMFIKKEELQELKCADVEDEDWDISSLEEEISLGKKSGKEQKEPPPAKNEPHFAHVLNAWGAFNPKGPKGEGLQENESSTLKSSLVTVTDWSDTSDV | binds | 

Results are given in words; binding and its absence hold for the method and conditions named. In cells and extracts the contact can be indirect. These calls come from enrichment with a bait or labelling near it, and not all partners need be listed. Where a sequence is shown, tags or fusion partners need not be part of it.
